PubChem BioAssay AID743454 – Peter MacCallum Cancer Centre | 2014

Assay: 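Genes whose loss kills vorinostat-resistant colon cancer cells under vorinostat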 (primary screen)
Cells: human HCT116-VR colon cancer cells, selected for vorinostat resistance
Reagent: siRNA pool against human genes, 40 nM siRNA pool
Duration: vorinostat for 24 h, read-out about 72 h after transfection
Treatment: vorinostat at 2.5 µM final
Measurement: 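Cell viability by CellTiter-Fluor and caspase 3/7 activity by luminescence, each scaled to mock wells per plate, duplicates averaged, then robust z-scored over all plates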
Direction: viability robust z-score: higher = more viable cells than screen typical; caspase robust z-score: higher = more caspase 3/7 activity than screen typical
Hit rule: 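Hits are knock-downs in viability class RV1/RV2 or caspase class CA1/CA2, excluding ones that killed cells in the no-drug cell-count arm; hits then retested with single siRNAs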
The deposit covers about 18,000 reagents; this is an unselected part. 450 of all reagents (2.5%) count as active. 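Single biological run; no consistent viability z cut-off exists, so the class columns, not z-scores, define the calls.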 A number with no mark means an inactive call. Reagent sequences are not shown.

no.	target gene	viability hit class	caspase hit class	viability robust z-score	caspase robust z-score
1	OR13J1	no change	no change	-0.06	1.35
2	CFAP65	no change	no change	-0.38	-0.24
3	RCOR3	no change	no change	-0.42	-0.31
4	MAVS	no change	no change	1.23	-0.49
5	NME3	no change	no change	-1.77	0.94
6	BCAP29	no change	no change	-1.48	0.1
7	TCTN3	no change	no change	-0.3	-0.06
8	ZMIZ2	no change	no change	-0.96	-0.65
9	NIFK	no change	no change	-2.47	0.4
10	RIT1	no change	no change	0.26	0.34
11	GRM5	no change	no change	-1.55	0.29
12	LTAP1	no change	no change	-0.03	0.02
13	TMEM138	no change	no change	0.02	1.09
14	NAALAD2	no change	no change	0.3	-0.32
15	CA6	no change	no change	0.24	-0.8
16	FBXO5	no change	no change	-1.18	3.27
17	TRIM45	no change	no change	1.55	-1
18	NUBP2	no change	no change	1.34	-0.1
19	AHRR	no change	no change	0.4	-0.17
20	LBX1	no change	no change	-0.22	0.9
21	INF2	no change	no change	-1.87	0.11
22	LHX2	no change	no change	1.17	0.3
23	PSAPL1	no change	no change	-0.26	-1.12

Only “viability robust z-score” (2 entries from above):
NUBP2: 1.34
AHRR: 0.4
